TcHisRS: 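Enzyme assay of histidyl-tRNA synthetase; the read-out is not stated. Target: Histidine-tRNA ligase, Trypanosoma cruzi CL Brener (UniProt Q4DA54). Concentration: 30 µM. The record gives no direction; compounds that gave an IC50 in retests scored well above the rest, so higher reads as stronger inhibition. Of about 69,000 compounds tested this way, about 31 (0.045%) reached 50% or more in at least one test.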
PfKRS1: 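Enzyme assay of the cytosolic lysyl-tRNA synthetase in 384-well plates, read by luminescence. Target: Lysine-tRNA ligase, Plasmodium falciparum 3D7 (UniProt Q8IDJ8). Compounds at 30 µM. Direction is inferred from only a few compounds that gave an IC50; most scored high, so higher reads as stronger inhibition. About 69,000 compounds were tested under these conditions; 0.071% (about 49) showed 50% or more at least once.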

Sequences of proteins named here, by UniProt entry; tags and fusion partners are left off. Residues count along the entry.
UniProt Q4DA54, 1-478: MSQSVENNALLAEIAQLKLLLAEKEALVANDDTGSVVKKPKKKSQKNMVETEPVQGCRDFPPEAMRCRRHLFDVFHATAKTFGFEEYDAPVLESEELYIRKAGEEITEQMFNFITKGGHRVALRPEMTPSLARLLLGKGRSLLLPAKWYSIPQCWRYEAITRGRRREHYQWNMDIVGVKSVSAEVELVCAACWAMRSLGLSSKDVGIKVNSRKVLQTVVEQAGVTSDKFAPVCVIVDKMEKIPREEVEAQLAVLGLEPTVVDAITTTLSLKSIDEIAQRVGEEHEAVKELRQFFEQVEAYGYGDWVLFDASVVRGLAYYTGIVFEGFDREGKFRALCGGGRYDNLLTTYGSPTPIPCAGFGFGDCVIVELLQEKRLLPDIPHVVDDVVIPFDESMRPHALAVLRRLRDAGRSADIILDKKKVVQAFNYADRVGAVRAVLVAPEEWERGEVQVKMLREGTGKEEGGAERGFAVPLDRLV
UniProt Q8IDJ8, 1-583: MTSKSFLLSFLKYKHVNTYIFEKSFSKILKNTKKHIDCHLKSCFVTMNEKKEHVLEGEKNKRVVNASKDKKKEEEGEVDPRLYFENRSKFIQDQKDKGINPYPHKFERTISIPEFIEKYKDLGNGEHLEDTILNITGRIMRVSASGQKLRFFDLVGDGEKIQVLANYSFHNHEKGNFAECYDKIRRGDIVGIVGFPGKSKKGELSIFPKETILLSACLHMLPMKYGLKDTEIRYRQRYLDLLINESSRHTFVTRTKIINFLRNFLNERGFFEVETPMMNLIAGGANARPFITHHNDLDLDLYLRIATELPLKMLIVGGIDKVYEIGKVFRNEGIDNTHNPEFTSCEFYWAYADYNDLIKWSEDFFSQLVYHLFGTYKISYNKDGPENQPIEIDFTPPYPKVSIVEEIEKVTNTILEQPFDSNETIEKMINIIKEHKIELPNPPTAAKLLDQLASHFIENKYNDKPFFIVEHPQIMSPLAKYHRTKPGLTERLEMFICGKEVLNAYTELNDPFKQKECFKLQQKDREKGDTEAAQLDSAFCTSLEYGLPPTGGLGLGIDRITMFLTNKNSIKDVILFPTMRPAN

The filed quantity is “Percent Effect” (%).
How 0% and 100% were set is not recorded. Most values in the screen are low, and negative values occur.
The compounds are a random part of those screened.

SMILES: CSCC(C)N(C)C(=O)c1nn(-c2ccc(F)cc2C)cc1O (centres unmarked)
TcHisRS: -5%
PfKRS1: 1.6%

SMILES: N#Cc1cccc(CN2C[C@H](OCC3CCOCC3)[C@H]3COC[C@H]32)c1
TcHisRS: 2.941%
PfKRS1: 6.146%

SMILES: CCN1CCC2(CC1)C(=O)N(c1ccc(C)nc1)CCN2CC(C)C
TcHisRS: 0%
PfKRS1: 11.65%

SMILES: O=C(Cc1ccc2c(c1)OCO2)N1CCN(c2ccccc2Cl)C(=O)C1
TcHisRS: 7.738%
PfKRS1: 6.499%

SMILES: N#Cc1cccc(N2CCC(CO)(CCc3ccccc3)CC2)n1
TcHisRS: 5.455%
PfKRS1: -3.686%

SMILES: CC(C)c1nc(CN2CCN(C(C)c3nc(C4CC4)no3)CC2)no1 (centres unmarked)
TcHisRS: 2.632%
PfKRS1: 3.218%

SMILES: CN(Cc1ncc[nH]1)C(=O)C(C)(C)NC(=O)c1cccs1
TcHisRS: 15.66%
PfKRS1: 6.226%

SMILES: CCC(CO)NC(=O)Nc1cc(F)ccc1Br (centres unmarked)
TcHisRS: 6.349%
PfKRS1: -2.397%

SMILES: CC(C)c1nnc(NC(=O)c2cccc(OCC(F)(F)F)n2)[nH]1
TcHisRS: 4.762%
PfKRS1: 4.451%

SMILES: COc1ccc(Oc2nccc3occc23)cc1CN1CCCC1
TcHisRS: 30.86%
PfKRS1: 4.233%

SMILES: O=C(COCC1CC1)Nc1cc(-c2ccc(Br)s2)n[nH]1
TcHisRS: 5.806%
PfKRS1: 0.9386%

SMILES: CC(CC(=O)NS(C)(=O)=O)C1CCCCC1 (centres unmarked)
TcHisRS: 9%
PfKRS1: 5.081%

SMILES: COc1ccc(C)cc1NC(=O)C1CSc2ncc(C)c(=O)n2C1 (centres unmarked)
TcHisRS: 9.639%
PfKRS1: 4.326%

SMILES: O=C(NCC1CCS(=O)(=O)C1)N(Cc1ccncc1)C1CC1 (centres unmarked)
TcHisRS: -2.646%
PfKRS1: -0.3251%

SMILES: O=C(c1cccs1)N1CC[C@H](O)[C@@H]1Cc1ccccc1
TcHisRS: 2.256%
PfKRS1: -10.56%

SMILES: Cc1ccn(-c2ccccc2NCc2cscn2)n1
TcHisRS: 0.9852%
PfKRS1: 3.103%

SMILES: CN1C(=O)COc2ccc(C(=O)Cn3cnc4ccccc4c3=O)cc21
TcHisRS: 2.97%
PfKRS1: 7.993%

SMILES: CCN1C[C@H]2[C@@H](C1)N(S(=O)(=O)c1ccccc1F)CC[C@H]2OC
TcHisRS: 5.882%
PfKRS1: 5.172%

SMILES: CNc1nc(C2CCCN(C(=O)C(C)(C)OC)C2)nc2c1CN(C)CC2 (centres unmarked)
TcHisRS: 8.365%
PfKRS1: 1.291%

SMILES: Cn1ccnc1CN1CCN(Cc2ccncc2)[C@@H]2CS(=O)(=O)C[C@@H]21
TcHisRS: 5.473%
PfKRS1: -3.493%

SMILES: COc1ccccc1OC1CN(c2ccncc2)C1
TcHisRS: 9.278%
PfKRS1: 0.2744%

SMILES: Cc1noc(CNC(=O)CN(C)c2nc3c(F)cccc3s2)n1
TcHisRS: 5.699%
PfKRS1: 3.8%

SMILES: NCCCC(=O)N1CCC2(CC1)CN(C(=O)c1ccc(Cl)cc1)CCO2
TcHisRS: 4.142%
PfKRS1: 0.4435%

SMILES: COC(=O)c1cc(C(=O)N2CCC(C)CC2)n(-c2ccccc2)n1
TcHisRS: 1.775%
PfKRS1: -0.1083%

SMILES: CCN1CCNC(=O)C12CCN(S(=O)(=O)c1ccc(F)cc1)CC2
TcHisRS: 7.767%
PfKRS1: 0.6654%

SMILES: Cc1nc(NCC2CC2)nc2c1COCC21CCN(CC(=O)N(C)C)C1 (centres unmarked)
TcHisRS: 9.804%
PfKRS1: 1.567%

SMILES: CC(C)c1ccccc1OCCNC(=O)N1CCC(CC(N)=O)CC1
TcHisRS: 4.972%
PfKRS1: 3.131%

SMILES: Cn1cnc(S(=O)(=O)N2C[C@@H]3CC[C@H](C2)N(Cc2cscn2)C3=O)c1
TcHisRS: 2.941%
PfKRS1: 2.929%

SMILES: OC1(CN2CCCC2)COCCN(c2ncnc3[nH]ccc23)C1 (centres unmarked)
TcHisRS: 5.202%
PfKRS1: 1.856%

SMILES: COCCC(=O)N1CCC2(COCc3cnc(-c4cccnc4)nc32)C1 (centres unmarked)
TcHisRS: 9.524%
PfKRS1: 4.499%

SMILES: Cc1oc(-c2ccsc2)nc1CNCCn1cccn1
TcHisRS: 7.389%
PfKRS1: 5.12%

SMILES: COc1cccc2c1OCC(C(=O)NC1CCN(S(C)(=O)=O)CC1)C2 (centres unmarked)
TcHisRS: -1.653%
PfKRS1: 0.273%

SMILES: CC(C)c1nc(/C=C/c2cnn(-c3ccccc3)c2)ncc1C(=O)O
TcHisRS: 4.39%
PfKRS1: 3.82%

SMILES: COc1ccc(C)cc1CC(=O)N1CCN(CC(C)O)CC1 (centres unmarked)
TcHisRS: 0.3802%
PfKRS1: 3.468%

SMILES: COCC(=O)Nc1ccc(Oc2ccsc2C(=O)O)cc1
TcHisRS: 9.375%
PfKRS1: 3.458%

SMILES: Cc1csc([C@H]2C[C@@H]3CCN(C(=O)c4cnccn4)C[C@H]3O2)n1
TcHisRS: 2.151%
PfKRS1: -0.6846%

SMILES: CCOCCN1CCN(CC(O)c2ccc(C)c(C)c2)CC1 (centres unmarked)
TcHisRS: 6.466%
PfKRS1: 6.279%

SMILES: N#Cc1cccc(NC2CC(=O)N(C3Cc4ccccc4C3)C2)n1 (centres unmarked)
TcHisRS: 8.671%
PfKRS1: 1.506%

SMILES: Cc1ccc(C(CNCc2ccc(C#N)cc2)N2CCOCC2)s1 (centres unmarked)
TcHisRS: -1.724%
PfKRS1: 1.621%

SMILES: C[S+]([O-])c1nncn1CC(=O)c1cccc(Cl)c1 (centres unmarked)
TcHisRS: 1.695%
PfKRS1: 6.991%

SMILES: Cc1ccc(CN2Cc3nnn(C)c3C(COCc3ccccc3)C2)s1 (centres unmarked)
TcHisRS: 7.477%
PfKRS1: 8.543%

SMILES: N#CC1COCCN1C(=O)c1ccc2[nH]cnc2c1 (centres unmarked)
TcHisRS: 10.05%
PfKRS1: 4.415%

SMILES: Cc1cc(CNC(=O)N2CCN(c3nc(C)c(C)s3)CC2)no1
TcHisRS: -1.604%
PfKRS1: 0.2529%

SMILES: CN(CCC(O)c1ccccc1)Cc1ccccc1C#N (centres unmarked)
TcHisRS: 10.23%
PfKRS1: 4.207%

SMILES: CNc1cc(-c2cccc(CN)c2)c2cc[nH]c2n1
TcHisRS: 81.71%
PfKRS1: 4.248%

SMILES: CCN(C)C(=O)c1ccc(N(C)Cc2cc(-c3cccnc3)no2)nc1
TcHisRS: 3.448%
PfKRS1: -0.49%

SMILES: CC(C)c1[nH]c2ncccc2c1CN1CCN(S(=O)(=O)N(C)C)CC1
TcHisRS: 5.426%
PfKRS1: 0.3147%

For reference, 3 entries once more:

| SMILES | TcHisRS | PfKRS1 |
|---|---|---|
| `Cn1ccnc1CN1CCN(Cc2ccncc2)[C@@H]2CS(=O)(=O)C[C@@H]21` | 5.473% | -3.493% |
| `CC(C)c1[nH]c2ncccc2c1CN1CCN(S(=O)(=O)N(C)C)CC1` | 5.426% | 0.3147% |
| `O=C(COCC1CC1)Nc1cc(-c2ccc(Br)s2)n[nH]1` | 5.806% | 0.9386% |

From ChEMBL document CHEMBL3988442, “University of Dundee, Small-Polar-MMV Screening Library” (2021).